# Laboratory results published in the supplement of paper PMC8728848.
# This is one part of the list.
# B1: BIp1-His (Cryptococcus neoformans) (protein)
# chain: MFTKIFVALFAATAVLSAPVESAEKRITHTGRATFYSPSVGIGACGWQNTDEELVVALNAPQYALNADHNCGQSVRITNEQNGNQEIAKVVDLCPGCNDGDLDMSPALFGALNNNDFDQGVFPISWNFLPRDDTSSSN
# How the values were obtained:
# Experiment in all cases: glycan array binding signal (z-score within array); higher = stronger binding
# Conditions in all cases: glycan notation: IUPAC condensed, linker removed
# [1] = molecular target: Fuc(a1-2)[Gal(a1-3)]Gal(b1-4)GlcNAc(b1-2)Man(a1-3)[Fuc(a1-2)[Gal(a1-3)]Gal(b1-4)GlcNAc(b1-2)Man(a1-6)]Man(b1-4)GlcNAc(b1-4)GlcNAc
# In short: (§1)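 Glycan array data came from 3228 arrays in the Consortium for Functional Glycomics database, and only arrays with an available protein sequence were kept. Glycan names were put into IUPAC-condensed notation, and columns mapping to the same glycan were averaged. The binding signal is a within-array Z-score, averaged across arrays of one protein sequence run at different concentrations or buffers and across linkers. A negative Z-score can be read as non-binding.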
# [2] = molecular target: Fuc(a1-2)[Gal(a1-3)]Gal(b1-4)GlcNAc(b1-2)Man(a1-3)[Fuc(a1-2)[Gal(a1-3)]Gal(b1-4)GlcNAc(b1-2)Man(a1-6)]Man(b1-4)GlcNAc(b1-4)[Fuc(a1-6)]GlcNAc
# In short: as §1
# [3] = molecular target: Fuc(a1-2)[Gal(a1-3)]Gal(b1-4)GlcNAc(b1-3)GalNAc
# In short: as §1
# [4] = molecular target: Fuc(a1-2)[Gal(a1-3)]Gal(b1-4)GlcNAc(b1-3)[Fuc(a1-2)[Gal(a1-3)]Gal(b1-4)GlcNAc(b1-6)]GalNAc
# In short: as §1
# [5] = molecular target: Fuc(a1-2)[Gal(a1-3)]Gal(b1-4)GlcNAc(b1-6)GalNAc
# In short: as §1
# [6] = molecular target: Fuc(a1-2)[Gal(a1-3)]Gal(b1-4)[Fuc(a1-3)]Glc
# In short: as §1
# [7] = molecular target: Fuc(a1-2)[Gal(a1-3)]Gal(b1-4)[Fuc(a1-3)]GlcNAc
# In short: as §1
# [8] = molecular target: Fuc(a1-2)[Gal(a1-3)]Gal(b1-4)[Fuc(a1-3)]GlcNAc(b1-3)GalNAc
# In short: as §1
# [9] = molecular target: Fuc(a1-2)[Gal(a1-4)]Gal(b1-4)GlcNAc
# In short: as §1
# [10] = molecular target: Fuc(a1-2)[GalNAc(a1-3)]Gal
# In short: as §1
# [11] = molecular target: Fuc(a1-2)[GalNAc(a1-3)]Gal(b1-3)GalNAc(a1-3)[Fuc(a1-2)]Gal(b1-4)GlcNAc
# In short: as §1
# [12] = molecular target: Fuc(a1-2)[GalNAc(a1-3)]Gal(b1-3)GalNAc(b1-3)Gal(a1-4)Gal(b1-4)Glc
# In short: as §1
# [13] = molecular target: Fuc(a1-2)[GalNAc(a1-3)]Gal(b1-3)GlcNAc
# In short: as §1
# [14] = molecular target: Fuc(a1-2)[GalNAc(a1-3)]Gal(b1-3)GlcNAc(b1-2)Man(a1-3)[Fuc(a1-2)[GalNAc(a1-3)]Gal(b1-3)GlcNAc(b1-2)Man(a1-6)]Man(b1-4)GlcNAc(b1-4)GlcNAc
# In short: as §1
# [15] = molecular target: Fuc(a1-2)[GalNAc(a1-3)]Gal(b1-3)GlcNAc(b1-2)Man(a1-3)[Fuc(a1-2)[GalNAc(a1-3)]Gal(b1-3)GlcNAc(b1-2)Man(a1-6)]Man(b1-4)GlcNAc(b1-4)[Fuc(a1-6)]GlcNAc
# In short: as §1
# [16] = molecular target: Fuc(a1-2)[GalNAc(a1-3)]Gal(b1-3)GlcNAc(b1-3)GalNAc
# In short: as §1
# [17] = molecular target: Fuc(a1-2)[GalNAc(a1-3)]Gal(b1-3)GlcNAc(b1-6)GalNAc
# In short: as §1
# [18] = molecular target: Fuc(a1-2)[GalNAc(a1-3)]Gal(b1-4)Glc
# In short: as §1
# [19] = molecular target: Fuc(a1-2)[GalNAc(a1-3)]Gal(b1-4)GlcNAc
# In short: as §1
# [20] = molecular target: Fuc(a1-2)[GalNAc(a1-3)]Gal(b1-4)GlcNAc(b1-2)Man
# In short: as §1
# [21] = molecular target: Fuc(a1-2)[GalNAc(a1-3)]Gal(b1-4)GlcNAc(b1-2)Man(a1-3)[Fuc(a1-2)[GalNAc(a1-3)]Gal(b1-4)GlcNAc(b1-2)Man(a1-6)]Man(b1-4)GlcNAc(b1-4)GlcNAc
# In short: as §1
# [22] = molecular target: Fuc(a1-2)[GalNAc(a1-3)]Gal(b1-4)GlcNAc(b1-2)Man(a1-3)[Fuc(a1-2)[GalNAc(a1-3)]Gal(b1-4)GlcNAc(b1-2)Man(a1-6)]Man(b1-4)GlcNAc(b1-4)[Fuc(a1-6)]GlcNAc
# In short: as §1
# [23] = molecular target: Fuc(a1-2)[GalNAc(a1-3)]Gal(b1-4)GlcNAc(b1-3)Gal(b1-4)GlcNAc
# In short: as §1
# [24] = molecular target: Fuc(a1-2)[GalNAc(a1-3)]Gal(b1-4)GlcNAc(b1-3)Gal(b1-4)GlcNAc(b1-3)Gal(b1-4)GlcNAc
# In short: as §1
# [25] = molecular target: Fuc(a1-2)[GalNAc(a1-3)]Gal(b1-4)GlcNAc(b1-3)GalNAc
# In short: as §1
# [26] = molecular target: Fuc(a1-2)[GalNAc(a1-3)]Gal(b1-4)GlcNAc(b1-3)[Fuc(a1-2)[GalNAc(a1-3)]Gal(b1-4)GlcNAc(b1-6)]GalNAc
# In short: as §1
# [27] = molecular target: Fuc(a1-2)[GalNAc(a1-3)]Gal(b1-4)GlcNAc(b1-6)GalNAc
# In short: as §1
# [28] = molecular target: Fuc(a1-2)[GalNAc(a1-3)]Gal(b1-4)[Fuc(a1-3)]GlcNAc
# In short: as §1
# [29] = molecular target: Fuc(a1-2)[GalNAc(a1-3)]Gal(b1-4)[Fuc(a1-3)]GlcNAc(b1-3)GalNAc
# In short: as §1
# [30] = molecular target: Fuc(a1-2)[GalNAc(a1-4)]Gal(b1-4)GlcNAc
# In short: as §1
binder,measurement,setting,value
B1,glycan array binding signal (z-score),[1],0.514
same,glycan array binding signal (z-score),[2],-0.245
same,glycan array binding signal (z-score),[3],-0.805
same,glycan array binding signal (z-score),[4],1.23
same,glycan array binding signal (z-score),[5],-1.17
same,glycan array binding signal (z-score),[6],-0.62
same,glycan array binding signal (z-score),[7],0.068
same,glycan array binding signal (z-score),[8],0.249
same,glycan array binding signal (z-score),[9],0.629
same,glycan array binding signal (z-score),[10],0.126
same,glycan array binding signal (z-score),[11],-0.625
same,glycan array binding signal (z-score),[12],0.795
same,glycan array binding signal (z-score),[13],0.046
same,glycan array binding signal (z-score),[14],0.104
same,glycan array binding signal (z-score),[15],-0.283
same,glycan array binding signal (z-score),[16],-0.241
same,glycan array binding signal (z-score),[17],0.285
same,glycan array binding signal (z-score),[18],0.382
same,glycan array binding signal (z-score),[19],-0.772
same,glycan array binding signal (z-score),[20],-1.56
same,glycan array binding signal (z-score),[21],0.464
same,glycan array binding signal (z-score),[22],0.393
same,glycan array binding signal (z-score),[23],-0.335
same,glycan array binding signal (z-score),[24],0.652
same,glycan array binding signal (z-score),[25],-0.851
same,glycan array binding signal (z-score),[26],-0.295
same,glycan array binding signal (z-score),[27],-0.512
same,glycan array binding signal (z-score),[28],0.331
same,glycan array binding signal (z-score),[29],-0.328
same,glycan array binding signal (z-score),[30],0.897

# Two consecutive entries out of the list so far:
binder,measurement,setting,value
B1,glycan array binding signal (z-score),[16],-0.241
same,glycan array binding signal (z-score),[17],0.285
